Assay results: patent publication US11174177B2, “Systems and methods for controlling aquatic pests with sulfurous acid” (priority 2017, dated 2021)

Assay: pH and carbonates in open water after adding sulfurous acid (FIG. 6)
Assay type: physicochemical

sulfurous acid
amount of carbonates in the treated water (as more sulfurous acid is added): reduced | pH of treated open water (as sulfurous acid is added, four experiments): about 5.5
